Each structure is given as a SMILES string. Where “and” joins values, the source holds several entries; their conditions need not be identical. Equal values may be shown once. Where a name gives a salt, the structure may show the parent alone. The list shows a part of the results. This data set is noisy: repeats of one test often differ as much as different tests do.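 HEK293T cells were given each compound shortly before transfection with a reporter in which red mCherry is followed by the SARS-CoV-2 frameshift element and then GFP in the −1 frame, so GFP appears only after frameshifting.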

In the experiment the test system is HEK293T. The experiment is described as follows: percent viability (nuclei count) relative to control; higher = more viable cells. As to conditions: 10 µM; 24 h.
For `O=S(=O)(O)Oc1ccc(C(c2ccc(OS(=O)(=O)O)cc2)c2ccccn2)cc1` [picosulfate], the percent viability is 158%. Then `COC1=CC(=O)C[C@@H](C)[C@]12Oc1c(Cl)c(OC)cc(OC)c1C2=O` [griseofulvin], with 184%; and `CCCCC[C@H](O)/C=C/[C@@H]1[C@@H](C/C=C\CCCC(=O)O)[C@@H](O)C[C@H]1O` [Dinoprost Tromethamine], with 56.2%; and `CCOC(=O)C1=C(C)NC(C)=C(C(=O)OCC)C1c1ccccc1/C=C/C(=O)OC(C)(C)C` [Lacidipine], with 249%. Then `NCc1ccccc1CC(=O)N[C@@H]1C(=O)N2C(C(=O)O)=C(CSc3nnnn3CC(=O)O)CS[C@H]12`, with 152%. `CN(C)CCc1c[nH]c2ccc(Cn3cncn3)cc12` [rizatriptan]: the percent viability stood at 268%. Then `CCC1=C(C)CN(C(=O)NCCc2ccc(S(=O)(=O)NC(=O)N[C@H]3CC[C@H](C)CC3)cc2)C1=O`, with 132%; and `COc1ccnc(C[S+]([O-])c2nc3cc(OC(F)F)ccc3[nH]2)c1OC` (stereo not given), with 272%.

On to `CCCOc1ccc(C(=O)CCN2CCCCC2)cc1` [propipocaine], for which the percent viability was found to be 113%.

With `Nc1ncnc2nc[nH]c12`, the percent viability is 113%.

With `c1ccc2[nH]c(-c3cscn3)nc2c1` [tiabendazole], the percent viability is 166%. The same measure for `CCCCN(CCCC)CCC(O)c1cc2c(Cl)cc(Cl)cc2c2cc(C(F)(F)F)ccc12` (stereo not given) [halofantrine]: 178%. With `CCS(=O)(=O)c1ccc(F)cc1` [fluoresone], the percent viability worked out at 208%. With `CO/N=C(\C(=O)N[C@@H]1C(=O)N2C(C(=O)[O-])=C(C[N+]3(C)CCCC3)CS[C@H]12)c1csc(N)n1` [Cefepime], the percent viability was 164%.

Turning to `CC1=C(CC(=O)O)c2cc(F)ccc2/C1=C\c1ccc([S+](C)[O-])cc1` (stereo not given) [Sulindac], the percent viability was determined as 235%. With `NC(CO)(CO)CO` [trometamol], the percent viability was determined as 168%. Then `O=C1c2c(O)cccc2[C@@H](O[C@@H]2O[C@H](CO)[C@H](O)[C@@H](O)[C@H]2O)c2cc(CO)cc(O)c21`, with 150%. Then `O=C1CCc2cc(OCCCCc3nnnn3C3CCCCC3)ccc2N1` [cilostazol], with 173%; and `CC(C)NCC(O)COc1ccc(CCOCC2CC2)cc1` (stereo not given) [Betaxolol·HCl], with 254%; and `NCCCC[C@H](N[C@@H](CCc1ccccc1)C(=O)O)C(=O)N1CCC[C@H]1C(=O)O`, with 155%. The same measure for `CS(=O)(=O)c1ccc([C@H](O)[C@@H](COC(=O)CN)NC(=O)C(Cl)Cl)cc1` [Thiamphenicol glycinate]: 250%. Consider `CC1=C(C)C(=O)C(CCCCC#CCCCC#CCO)=C(C)C1=O` [docebenone], for which the percent viability stood at 311%.

For `CN[C@H](CC(C)C)C(=O)N[C@H]1C(=O)N[C@@H](CC(N)=O)C(=O)N[C@H]2C(=O)N[C@H]3C(=O)N[C@H](C(=O)N[C@H](C(=O)O)c4cc(O)cc(O)c4-c4cc3ccc4O)[C@H](O)c3ccc(c(Cl)c3)Oc3cc2cc(c3O[C@@H]2O[C@H](CO)[C@@H](O)[C@H](O)[C@H]2O[C@H]2C[C@](C)(N)[C@H](O)[C@H](C)O2)Oc2ccc(cc2Cl)[C@H]1O`, the percent viability came to 148%. Regarding `CO[C@@]1(NC(=O)CSCC#N)C(=O)N2C(C(=O)O)=C(CSc3nnnn3C)CS[C@@H]21` [cefmetazole], the percent viability is 233%. The same measure for `O=C(c1cccnc1)N1CCOCC1` [nicopholine]: 294%; for `C#Cc1cccc(Nc2ncnc3cc(OCCOC)c(OCCOC)cc23)c1` [erlotinib]: 142%; for `CCOc1nc2cccc(C(=O)OCc3oc(=O)oc3C)c2n1Cc1ccc(-c2ccccc2-c2noc(=O)[nH]2)cc1`: 347%. The same measure for `C=CC1=C(C(=O)O)N2C(=O)[C@@H](NC(=O)/C(=N\OCC(=O)O)c3csc(N)n3)[C@H]2SC1` [cefixime]: 134%.

Take `CCOC(=O)OC(C)OC(=O)[C@@H]1N2C(=O)[C@@H](NC(=O)[C@H](N)c3ccccc3)[C@H]2SC1(C)C` (stereo not given in full): the percent viability worked out at 142%. For the compound `CC(=O)OCC(=O)[C@@]1(O)CC[C@H]2[C@@H]3CCC4=CC(=O)C=C[C@]4(C)[C@@]3(Cl)[C@@H](Cl)C[C@@]21C`, the percent viability turned out to be 370%. Then `CN1CCN2c3ccccc3Cc3ccccc3C2C1` (stereo not given), with 400%. The same measure for `CNCCC=C1c2ccccc2CCc2ccccc21` [nortriptyline]: 310%; for `OCC(S)CS` (stereo not given) [dimercaprol]: 143%. Take `Cc1ccc(C(=O)c2ccc(CC(=O)O)n2C)cc1` [tolmetin]: the percent viability is 121% and 266%. `COc1cc(O)c(C(=O)c2ccccc2)cc1S(=O)(=O)O` [sulisobenzone]: the percent viability was 127%.

These data come from the supplement of paper PMC8256030.
